Measurements taken from publication PMC6443190, “Regulation of anthocyanin accumulation via MYB75/HAT1/TPL-mediated transcriptional repression” (PLoS Genetics, 2019).
Results are given in words; binding and its absence hold for the method and conditions named. A result given as binding can be weak or reduced; the word gives no strength. Sequences can lack the tags named with a protein. One block for each binder: values may come before it.

Experiments:
[1] = biological target: MYB75 R2 domain (pull-down fragment) (Arabidopsis thaliana); experiment: pull-down; Ni-NTA beads with 5 ug HIS protein incubated with 5 ug MBP protein; 150 mM NaCl, 20 mM Tris, 0.2% Triton X-100, pH 8.0, 4 C, 2 h; anti-MBP blot; both purified
[2] = biological target: MYB75 C-terminal fragment (pull-down fragment) (Arabidopsis thaliana); experiment: as above
[3] = biological target: TPL N terminus (pGBKT7 fusion, yeast two-hybrid) (Arabidopsis thaliana); experiment: two-hybrid; directed assay; yeast AH109 with pairs of pGADT7 and pGBKT7 plasmids; growth on SD-Leu/-Trp/-Ade/-His

- binding [1]: binds
- binding [2]: binds weakly
B1: MBP-HAT1 (protein, UniProt P46600 1-282)
chain: MMMGKEDLGLSLSLGFAQNHPLQLNLKPTSSPMSNLQMFPWNQTLVSSSDQQKQQFLRKIDVNSLPTTVDLEEETGVSSPNSTISSTVSGKRRSTEREGTSGGGCGDDLDITLDRSSSRGTSDEEEDYGGETCRKKLRLSKDQSAVLEDTFKEHNTLNPKQKLALAKKLGLTARQVEVWFQNRRARTKLKQTEVDCEYLKRCVEKLTEENRRLEKEAAELRALKLSPRLYGQMSPPTTLLMCPSCERVAGPSSSNHNQRSVSLSPWLQMAHGSTFDVMRPRS

- binding [3]: binds
B2: HAT1 (pGADT7 fusion, yeast two-hybrid) (protein, UniProt P46600 1-282)
chain: B1 chain
